Results: the supplement of paper PMC12067093, “Discovery and optimisation of a covalent ligand for TRIM25 and its application to targeted protein ubiquitination” (Chemical Science, 2025)
The list shows a part of the results.

Sequences of proteins named here, by UniProt entry; tags and fusion partners are left off. A change or cut given only in a name is not applied to a line headed by its entry.
UniProt Q6GMV2: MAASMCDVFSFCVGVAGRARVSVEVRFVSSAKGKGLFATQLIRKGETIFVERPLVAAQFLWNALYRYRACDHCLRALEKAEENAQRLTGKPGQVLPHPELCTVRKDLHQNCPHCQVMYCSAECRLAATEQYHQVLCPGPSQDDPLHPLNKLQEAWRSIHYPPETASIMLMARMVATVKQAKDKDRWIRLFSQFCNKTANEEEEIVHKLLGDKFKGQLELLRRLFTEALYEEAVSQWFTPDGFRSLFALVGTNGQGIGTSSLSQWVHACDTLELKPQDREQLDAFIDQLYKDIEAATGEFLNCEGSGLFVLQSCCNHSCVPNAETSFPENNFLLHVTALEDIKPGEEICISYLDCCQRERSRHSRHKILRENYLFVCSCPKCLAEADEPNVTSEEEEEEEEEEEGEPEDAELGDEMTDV
UniProt Q9NTJ3, whole entry, looked up: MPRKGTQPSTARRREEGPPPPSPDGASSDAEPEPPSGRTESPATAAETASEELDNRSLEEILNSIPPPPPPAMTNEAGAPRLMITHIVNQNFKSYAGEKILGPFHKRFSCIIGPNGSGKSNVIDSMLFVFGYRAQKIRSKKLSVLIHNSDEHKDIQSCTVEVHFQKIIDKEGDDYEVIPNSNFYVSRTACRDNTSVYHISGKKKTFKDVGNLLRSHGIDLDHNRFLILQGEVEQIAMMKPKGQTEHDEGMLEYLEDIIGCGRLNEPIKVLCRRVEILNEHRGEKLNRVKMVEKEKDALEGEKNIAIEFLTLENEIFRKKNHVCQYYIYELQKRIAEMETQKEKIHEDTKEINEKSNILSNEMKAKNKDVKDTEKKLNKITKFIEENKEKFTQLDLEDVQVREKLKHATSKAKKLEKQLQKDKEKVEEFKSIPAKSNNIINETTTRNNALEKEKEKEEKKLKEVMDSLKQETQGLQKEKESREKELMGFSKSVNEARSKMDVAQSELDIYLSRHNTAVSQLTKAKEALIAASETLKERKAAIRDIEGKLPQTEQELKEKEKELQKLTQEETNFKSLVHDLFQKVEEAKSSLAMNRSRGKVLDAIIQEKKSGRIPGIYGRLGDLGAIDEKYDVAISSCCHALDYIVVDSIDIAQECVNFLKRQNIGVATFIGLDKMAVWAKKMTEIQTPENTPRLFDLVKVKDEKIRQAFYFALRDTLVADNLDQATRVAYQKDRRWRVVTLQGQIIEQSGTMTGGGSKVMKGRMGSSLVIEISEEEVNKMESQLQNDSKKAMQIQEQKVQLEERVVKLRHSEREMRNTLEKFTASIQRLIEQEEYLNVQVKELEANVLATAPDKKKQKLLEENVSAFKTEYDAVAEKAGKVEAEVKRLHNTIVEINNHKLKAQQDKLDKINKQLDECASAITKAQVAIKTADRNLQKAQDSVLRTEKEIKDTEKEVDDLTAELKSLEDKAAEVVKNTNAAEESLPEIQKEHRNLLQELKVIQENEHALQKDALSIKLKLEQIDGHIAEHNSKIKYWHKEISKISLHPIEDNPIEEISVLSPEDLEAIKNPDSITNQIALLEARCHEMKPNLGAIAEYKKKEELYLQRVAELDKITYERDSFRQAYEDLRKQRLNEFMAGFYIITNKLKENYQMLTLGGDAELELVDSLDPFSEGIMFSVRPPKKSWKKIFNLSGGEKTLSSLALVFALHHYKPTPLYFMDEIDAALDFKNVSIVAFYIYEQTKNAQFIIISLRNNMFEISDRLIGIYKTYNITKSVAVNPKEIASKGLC
UniProt Q92925, whole entry, looked up: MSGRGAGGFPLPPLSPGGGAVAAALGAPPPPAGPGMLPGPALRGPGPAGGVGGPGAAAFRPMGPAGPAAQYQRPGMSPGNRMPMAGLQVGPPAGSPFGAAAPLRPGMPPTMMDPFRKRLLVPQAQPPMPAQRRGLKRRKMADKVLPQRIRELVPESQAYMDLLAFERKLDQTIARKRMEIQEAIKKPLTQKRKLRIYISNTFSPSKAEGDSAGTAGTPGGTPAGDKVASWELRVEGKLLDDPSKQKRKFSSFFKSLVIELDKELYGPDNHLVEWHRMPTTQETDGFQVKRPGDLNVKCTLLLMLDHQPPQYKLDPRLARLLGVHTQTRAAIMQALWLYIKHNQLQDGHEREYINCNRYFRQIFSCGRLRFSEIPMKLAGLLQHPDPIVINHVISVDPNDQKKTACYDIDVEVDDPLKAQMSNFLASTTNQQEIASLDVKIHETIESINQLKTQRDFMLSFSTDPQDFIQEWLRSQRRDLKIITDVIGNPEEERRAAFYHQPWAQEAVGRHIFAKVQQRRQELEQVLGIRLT
UniProt O14745: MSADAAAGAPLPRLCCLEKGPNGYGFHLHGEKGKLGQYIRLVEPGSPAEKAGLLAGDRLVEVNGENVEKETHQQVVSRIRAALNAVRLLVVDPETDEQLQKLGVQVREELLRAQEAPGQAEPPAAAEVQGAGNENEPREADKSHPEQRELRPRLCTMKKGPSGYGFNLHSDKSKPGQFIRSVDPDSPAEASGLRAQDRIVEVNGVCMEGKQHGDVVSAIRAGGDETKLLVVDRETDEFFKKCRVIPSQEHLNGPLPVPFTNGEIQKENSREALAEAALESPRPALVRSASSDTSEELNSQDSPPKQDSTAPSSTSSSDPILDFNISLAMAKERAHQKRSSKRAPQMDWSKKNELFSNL
UniProt Q92922, whole entry, looked up: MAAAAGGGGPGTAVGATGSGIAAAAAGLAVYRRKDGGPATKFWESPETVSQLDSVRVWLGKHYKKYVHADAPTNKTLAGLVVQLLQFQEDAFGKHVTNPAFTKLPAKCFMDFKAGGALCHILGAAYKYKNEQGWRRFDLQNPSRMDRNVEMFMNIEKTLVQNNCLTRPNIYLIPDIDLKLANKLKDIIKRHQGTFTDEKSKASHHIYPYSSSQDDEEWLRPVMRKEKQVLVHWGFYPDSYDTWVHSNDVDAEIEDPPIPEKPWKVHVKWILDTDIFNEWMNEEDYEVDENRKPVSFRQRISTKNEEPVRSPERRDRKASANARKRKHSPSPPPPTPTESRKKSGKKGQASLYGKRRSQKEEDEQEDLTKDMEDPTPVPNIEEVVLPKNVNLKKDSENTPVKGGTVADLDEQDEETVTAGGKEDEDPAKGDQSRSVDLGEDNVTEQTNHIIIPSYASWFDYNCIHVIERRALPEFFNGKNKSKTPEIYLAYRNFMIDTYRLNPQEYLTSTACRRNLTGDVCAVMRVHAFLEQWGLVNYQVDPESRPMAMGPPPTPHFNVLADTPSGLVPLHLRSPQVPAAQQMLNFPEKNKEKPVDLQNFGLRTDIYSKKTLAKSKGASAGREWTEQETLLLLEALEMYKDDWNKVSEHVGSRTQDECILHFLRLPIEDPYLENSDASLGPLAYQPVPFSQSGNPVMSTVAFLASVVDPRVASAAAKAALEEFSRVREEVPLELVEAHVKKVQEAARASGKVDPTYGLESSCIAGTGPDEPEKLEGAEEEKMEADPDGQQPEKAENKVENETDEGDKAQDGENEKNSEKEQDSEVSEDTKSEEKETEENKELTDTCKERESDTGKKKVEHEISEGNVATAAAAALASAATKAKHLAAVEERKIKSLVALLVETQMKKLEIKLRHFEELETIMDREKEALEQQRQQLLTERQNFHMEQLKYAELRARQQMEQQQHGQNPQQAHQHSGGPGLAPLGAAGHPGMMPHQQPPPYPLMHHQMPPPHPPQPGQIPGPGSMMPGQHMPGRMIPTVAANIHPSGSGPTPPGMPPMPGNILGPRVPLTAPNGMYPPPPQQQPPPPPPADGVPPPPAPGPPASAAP
UniProt Q9H4L7: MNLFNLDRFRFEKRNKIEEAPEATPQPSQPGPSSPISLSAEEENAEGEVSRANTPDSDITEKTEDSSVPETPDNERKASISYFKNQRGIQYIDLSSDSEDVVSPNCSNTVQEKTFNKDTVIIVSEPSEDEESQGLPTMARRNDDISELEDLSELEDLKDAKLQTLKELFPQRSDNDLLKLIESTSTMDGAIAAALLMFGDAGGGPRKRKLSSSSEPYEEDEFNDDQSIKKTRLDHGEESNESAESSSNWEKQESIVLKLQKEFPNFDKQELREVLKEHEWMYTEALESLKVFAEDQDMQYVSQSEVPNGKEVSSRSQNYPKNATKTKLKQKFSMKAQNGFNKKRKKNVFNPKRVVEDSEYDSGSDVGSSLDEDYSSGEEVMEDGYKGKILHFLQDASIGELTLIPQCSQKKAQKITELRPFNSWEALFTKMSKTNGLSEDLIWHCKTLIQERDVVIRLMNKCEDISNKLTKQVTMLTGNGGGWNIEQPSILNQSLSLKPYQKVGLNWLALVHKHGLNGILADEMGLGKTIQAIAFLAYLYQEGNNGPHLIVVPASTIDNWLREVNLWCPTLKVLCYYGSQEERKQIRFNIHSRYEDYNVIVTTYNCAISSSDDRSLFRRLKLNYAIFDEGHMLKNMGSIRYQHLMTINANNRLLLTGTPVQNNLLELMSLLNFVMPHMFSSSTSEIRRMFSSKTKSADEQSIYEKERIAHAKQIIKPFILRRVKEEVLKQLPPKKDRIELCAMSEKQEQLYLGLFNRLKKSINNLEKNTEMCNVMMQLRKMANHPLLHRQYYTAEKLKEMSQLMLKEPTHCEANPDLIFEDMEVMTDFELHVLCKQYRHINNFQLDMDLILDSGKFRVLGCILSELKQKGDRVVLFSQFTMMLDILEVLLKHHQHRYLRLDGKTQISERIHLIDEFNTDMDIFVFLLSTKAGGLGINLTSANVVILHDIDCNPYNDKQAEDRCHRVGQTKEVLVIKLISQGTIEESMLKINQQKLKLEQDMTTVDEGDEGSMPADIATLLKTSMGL
UniProt Q5K4L6: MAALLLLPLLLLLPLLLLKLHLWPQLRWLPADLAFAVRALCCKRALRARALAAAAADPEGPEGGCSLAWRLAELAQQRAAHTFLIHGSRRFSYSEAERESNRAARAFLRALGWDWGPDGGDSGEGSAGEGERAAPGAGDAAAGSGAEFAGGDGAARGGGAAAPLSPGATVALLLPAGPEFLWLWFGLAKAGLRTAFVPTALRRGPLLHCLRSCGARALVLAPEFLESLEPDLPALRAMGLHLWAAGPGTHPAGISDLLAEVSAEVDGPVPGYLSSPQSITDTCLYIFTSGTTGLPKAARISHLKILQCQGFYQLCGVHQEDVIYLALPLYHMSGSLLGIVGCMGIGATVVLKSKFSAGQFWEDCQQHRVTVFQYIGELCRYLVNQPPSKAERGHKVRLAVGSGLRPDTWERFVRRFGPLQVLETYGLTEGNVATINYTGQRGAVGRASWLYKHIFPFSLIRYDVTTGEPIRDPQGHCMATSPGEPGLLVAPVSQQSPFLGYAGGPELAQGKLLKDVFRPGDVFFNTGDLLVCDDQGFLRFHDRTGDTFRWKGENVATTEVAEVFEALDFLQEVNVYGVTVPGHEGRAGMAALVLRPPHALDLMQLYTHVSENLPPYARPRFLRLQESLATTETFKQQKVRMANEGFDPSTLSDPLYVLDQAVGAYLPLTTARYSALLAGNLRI
UniProt Q9UPR3: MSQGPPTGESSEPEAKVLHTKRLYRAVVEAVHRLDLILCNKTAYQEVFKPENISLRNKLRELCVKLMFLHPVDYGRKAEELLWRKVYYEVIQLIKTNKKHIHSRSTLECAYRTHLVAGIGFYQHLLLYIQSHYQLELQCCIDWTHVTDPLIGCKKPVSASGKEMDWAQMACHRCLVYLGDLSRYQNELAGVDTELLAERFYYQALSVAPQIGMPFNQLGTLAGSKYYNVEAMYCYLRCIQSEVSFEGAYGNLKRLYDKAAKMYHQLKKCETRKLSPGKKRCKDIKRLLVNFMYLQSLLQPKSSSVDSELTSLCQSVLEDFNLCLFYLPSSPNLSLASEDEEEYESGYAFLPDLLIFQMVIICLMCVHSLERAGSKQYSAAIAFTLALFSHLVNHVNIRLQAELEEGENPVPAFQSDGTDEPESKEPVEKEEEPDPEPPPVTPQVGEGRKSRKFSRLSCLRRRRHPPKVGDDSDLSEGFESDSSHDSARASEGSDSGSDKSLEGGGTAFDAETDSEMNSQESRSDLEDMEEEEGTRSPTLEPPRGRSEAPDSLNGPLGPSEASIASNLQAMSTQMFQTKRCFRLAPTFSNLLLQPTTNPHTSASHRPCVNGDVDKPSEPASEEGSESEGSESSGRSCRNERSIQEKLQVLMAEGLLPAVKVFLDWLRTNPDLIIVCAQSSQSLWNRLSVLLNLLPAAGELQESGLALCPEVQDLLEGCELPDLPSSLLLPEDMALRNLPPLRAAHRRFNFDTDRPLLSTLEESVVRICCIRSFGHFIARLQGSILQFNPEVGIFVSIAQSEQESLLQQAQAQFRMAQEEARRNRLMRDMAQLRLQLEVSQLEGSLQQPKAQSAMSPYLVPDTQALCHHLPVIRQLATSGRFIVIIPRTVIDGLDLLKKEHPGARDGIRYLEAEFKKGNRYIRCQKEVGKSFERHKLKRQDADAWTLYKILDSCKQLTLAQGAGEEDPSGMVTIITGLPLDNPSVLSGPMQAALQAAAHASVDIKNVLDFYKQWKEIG

Compound: CC1Cc2ccccc2N1C(=O)C1CCCN(C1)C(=O)CCl (mixture of isomers) [TRIM25 ligand 11 (diastereomer mixture)]
Assay: probe-labelled cysteine peptide fold change vs DMSO (competition) (log2 fold change); higher = less target engagement (more negative = stronger competition)
Settings: THP-1, incubation time: 4 h
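Note: competitive chemoproteomic profiling in live THP-1 cells with an iodoacetamide desthiobiotin (IA-DTB) probe, comparing probe-labelled peptide intensities in compound-treated cells against DMSO-treated controls.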

Target	probe-labelled cysteine peptide fold change (10 µM)	probe-labelled cysteine peptide fold change (50 µM)
SLFN11_Q7Z7L1_150_EAFCFLK (UniProt Q7Z7L1)	-0.0249	-0.268
SLX4IP_Q5VYV7_299_NCSSAEDFDHHGR (UniProt Q5VYV7)	0.172	-0.0972
SMCHD1_A6NHR9_474_GKRPIFECFWNGR (UniProt A6NHR9)	-0.236	-0.171
SLC35B1_P78383_119_SCKPIPVMLLGVTLLK (UniProt P78383)	-0.942	0.0401
SMYD5_Q6GMV2_378_ENYLFVCSCPK (UniProt Q6GMV2)	0.0657	-0.119
SMC4_Q9NTJ3_110_FSCIIGPNGSGK (UniProt Q9NTJ3)	0.0672	0.25
SMCHD1_A6NHR9_1018_IEIPSCK (UniProt A6NHR9)	-0.00436	-0.0233
SMARCD2_Q92925_405_TACYDIDVEVDDPLK (UniProt Q92925)	-0.0479	-0.158
SMYD5_Q6GMV2_101_LTGKPGQVLPHPELCTVRK (UniProt Q6GMV2)	-0.263	-0.188
SLC9A3R1_O14745_206_IVEVNGVCMEGK (UniProt O14745)	-0.0612	0.0485
SLC9A3R1_O14745_15_LCCLEK (UniProt O14745)	-0.0798	-0.136
SMARCC1_Q92922_119_AGGALCHILGAAYK (UniProt Q92922)	-0.0478	0.191
SLMAP_Q14BN4_673_EWNALETECHSLK (UniProt Q14BN4)	0.25	0.175
SMAD4_Q13485_123+127_CDSVCVNPYHYER (UniProt Q13485)	0.0654	0.0144
SMARCA2_P51531_1016_ICNHPYMFQHIEESFAEHLGYSNGVINGAELYR (UniProt P51531)	-0.0517	-0.116
SLK_Q9H2G2_993_AELANIERECLNNK (UniProt Q9H2G2)	-0.123	-0.0676
SMCHD1_A6NHR9_492_LIPYTSVEDFDWCTPPK (UniProt A6NHR9)	-0.0283	-0.211
SMC1A_Q14683_1073_FDRFNACFESVATNIDEIYK (UniProt Q14683)	-0.0806	-0.00889
SMYD5_Q6GMV2_136_LAATEQYHQVLCPGPSQDDPLHPLNK (UniProt Q6GMV2)	0.0782	0.106
SNRNP40_Q96DI7_99_LILLWNVYGDCDNYATLK (UniProt Q96DI7)	0.0363	0.117
SMARCA2_P51531_1175_LCTVNSVEEK (UniProt P51531)	0.0321	0.17
SMCHD1_A6NHR9_505_GLAPIECYNR (UniProt A6NHR9)	0.0869	0.0307

Another view of part of the listing above:
Target | probe-labelled cysteine peptide fold change (10 µM) | probe-labelled cysteine peptide fold change (50 µM)
SMC4_Q9NTJ3_110_FSCIIGPNGSGK (UniProt Q9NTJ3) | 0.0672 | 0.25
SMCHD1_A6NHR9_1018_IEIPSCK (UniProt A6NHR9) | -0.00436 | -0.0233
SMARCD2_Q92925_405_TACYDIDVEVDDPLK (UniProt Q92925) | -0.0479 | -0.158

Going on with the list:

Target	probe-labelled cysteine peptide fold change (10 µM)	probe-labelled cysteine peptide fold change (50 µM)
SMURF2_Q9HAU4_627_ELELIICGLGK (UniProt Q9HAU4)	0.0245	0.062
SMC2_O95347_326_NLACEESK (UniProt O95347)	-0.0206	-0.0135
SMARCAD1_Q9H4L7_861_VLGCILSELK (UniProt Q9H4L7)	-0.0385	0.0896
SND1_Q7KZF4_837_DIQNTQCLLNVEHLSAGCPHVTLQFADSK (UniProt Q7KZF4)	0.203	-0.214
SNRNP200_O75643_1506_DVAHWLGCSATSTFNFHPNVR (UniProt O75643)	0.129	0.14
SLC27A3_Q5K4L6_256_RGPLLHCLR (UniProt Q5K4L6)	-0.11	-0.0358
SLFN13_Q68D06_631_ILYVCENQPLR (UniProt Q68D06)	-0.0271	0.195
SMAD5_Q99717_110_WPDLQSHHELKPLDICEFPFGSK (UniProt Q99717)	-0.0706	-0.0467
SMG5_Q9UPR3_865_AQSAMSPYLVPDTQALCHHLPVIR (UniProt Q9UPR3)	0.13	0.0263
SLITRK4_Q8IW52_661_HEGLGNPDCGSMQLQLR (UniProt Q8IW52)	0.167	-0.0988
SMARCAD1_Q9H4L7_741_IELCAMSEK (UniProt Q9H4L7)	-0.0382	0.0471
SMPD1_P17405_229_ILFLTDLHWDHDYLEGTDPDCADPLCCR (UniProt P17405)	0.202	0.182
SMG5_Q9UPR3_39_LDLILCNK (UniProt Q9UPR3)	0.355	0.485
SMU1_Q2TAY7_383_TTECSNTFK (UniProt Q2TAY7)	0.0113	0.106
SLC27A3_Q5K4L6_256_GPLLHCLR (UniProt Q5K4L6)	0.138	0.0913
SMAP1_Q8IYB5_85_SVNLDQWTAEQIQCMQDMGNTK (UniProt Q8IYB5)	0.0809	0.0618
SMN2_Q16637_98_CSAIWSEDGCIYPATIASIDFKR (UniProt Q16637)	-0.43	-0.214
SMARCC1_Q92922_164_TLVQNNCLTRPNIYLIPDIDLK (UniProt Q92922)	-0.0295	-0.0481
SLU7_O95391_469_EIVNSEECIINEITGEESVK (UniProt O95391)	0.44	0.0302
SMPD4_Q9NXE4_698_QLPDCIVGEDGLILTPLGR (UniProt Q9NXE4)	-0.163	-0.18
SLC44A1_Q8WWI5_159_SSVLCPK (UniProt Q8WWI5)	0.0703	0.0677
